Measurements reported in patent EP1988102A1.

Chains of the proteins cited; added tags and fusions are not shown. Residues count along the entry.
UniProt P16234, residues 24-528: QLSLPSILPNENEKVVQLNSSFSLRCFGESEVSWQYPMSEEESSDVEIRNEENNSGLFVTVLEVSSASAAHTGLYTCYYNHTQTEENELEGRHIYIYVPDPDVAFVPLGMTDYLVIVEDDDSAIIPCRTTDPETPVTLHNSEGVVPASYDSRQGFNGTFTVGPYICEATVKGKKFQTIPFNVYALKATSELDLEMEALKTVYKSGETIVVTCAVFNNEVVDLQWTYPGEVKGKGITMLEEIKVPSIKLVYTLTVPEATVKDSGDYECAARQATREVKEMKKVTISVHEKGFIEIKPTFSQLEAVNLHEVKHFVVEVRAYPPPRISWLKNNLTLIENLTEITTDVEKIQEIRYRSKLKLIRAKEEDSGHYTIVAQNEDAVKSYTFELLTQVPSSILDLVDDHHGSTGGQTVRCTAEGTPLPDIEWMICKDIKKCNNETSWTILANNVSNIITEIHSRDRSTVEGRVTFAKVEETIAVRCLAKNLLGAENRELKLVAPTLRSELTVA
UniProt P01127, residues 82-190: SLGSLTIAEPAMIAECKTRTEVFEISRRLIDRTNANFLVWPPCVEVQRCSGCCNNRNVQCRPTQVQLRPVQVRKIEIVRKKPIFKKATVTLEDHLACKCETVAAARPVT

Target: PDGF alpha receptor IgG Fc-receptor extracellular domain fusion protein (UniProt P16234)
Assay: SELDI mass spectrometry (ProteinChip); receptor-Fc captured on a protein-A chip

Substance | binding
PDGF AB (from UniProt P04085 87-211; P01127 82-190) (ligand) | binds
PDGF-AA (from UniProt P04085 87-211) (ligand) | binds
PDGF-BB (from UniProt P01127 82-190) (ligand) | binds

Results are given in words; binding and its absence hold for the method and conditions named. In cells and extracts the contact can be indirect. Here binding means that the protein was enriched with, or labelled near, the bait; the list need not be complete.
